# In article doi:10.1101/2021.11.10.468008:
# Results are given in words; binding and its absence hold for the method and conditions named. Binding calls can cover weak binding; strength is not graded here.
# T1: Nup85 (X. laevis (endogenous in oocytes)) (UniProt Q68FJ0)
# T1 sequence: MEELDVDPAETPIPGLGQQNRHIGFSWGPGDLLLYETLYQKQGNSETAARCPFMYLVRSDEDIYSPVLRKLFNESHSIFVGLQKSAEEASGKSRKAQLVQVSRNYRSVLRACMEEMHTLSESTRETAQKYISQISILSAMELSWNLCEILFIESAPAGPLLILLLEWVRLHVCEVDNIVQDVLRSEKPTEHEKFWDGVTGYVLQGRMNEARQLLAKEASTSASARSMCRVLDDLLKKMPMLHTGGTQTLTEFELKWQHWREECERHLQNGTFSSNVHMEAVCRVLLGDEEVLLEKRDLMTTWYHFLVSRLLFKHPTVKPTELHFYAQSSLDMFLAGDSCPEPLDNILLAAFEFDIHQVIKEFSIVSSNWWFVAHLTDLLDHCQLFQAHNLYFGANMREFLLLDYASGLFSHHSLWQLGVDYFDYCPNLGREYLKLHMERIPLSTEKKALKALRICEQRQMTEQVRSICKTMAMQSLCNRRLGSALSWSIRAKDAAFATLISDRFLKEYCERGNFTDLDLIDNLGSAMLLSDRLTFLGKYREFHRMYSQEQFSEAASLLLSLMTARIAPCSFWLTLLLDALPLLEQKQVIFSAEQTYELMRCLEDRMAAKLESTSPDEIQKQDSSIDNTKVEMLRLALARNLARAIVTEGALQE
# B1: Nup93 (protein, UniProt Q7ZX96 1-820)
# chain: MDGEGFGELLQQAEQLAAETEGVTELPHVERNLQEIQQAGERLRSKTMTRTSQESANVKASVLLGSRGLDISHISQRLESLSAATTFEPLEPVKDTDIQGFLKNEKDNALLSAIEESRKRTFVMAEEYHRESMLVEWEQVKQRVLHTLLASGEDALDFTQESETSYISESGAPGRSSLDNVEMAYARQMYMYNEKVVSGHLQPSLVDLCTEAAERLDDKNVSDLWVMVKQMTDVPLIPASDTLKSRCSGQMQMAFVRQALNYLEQSYKNYTLISVFANLQQAQLGGVPGTYNLVRSFLNIRLPTPIPGLQDGEIEGYPVWALIYYCMRCGDLMAAQQVVNRAQHQLGDFKNCFQEYIHNKDRRLSPTTENKLRLHYRRAVRASTDPYKRAVYCIIGRCDVSDNHSEVADKTEDYLWLKLSQVCFEDEANSSPQDRLTLPQFQKQLFEDYGESHFAVNQQPYLYFQVLFLTAQFEAAIAFLFRLERTRCHAVHVALALFELKLLLKSTGQSAQLLSQEPGEPQGVRRLNFIRLLMLYTRKFEPTDPREALQYFYFLRNEKDNQGESMFLRCVSELVIESREFDMLLGKLEKDGSRKPGAIDKFTRDTKTIINKVASVAENKGLFEEAAKLYDLAKNPDKVLELTNKLLSPVVSQISAPQSNRERLKNMALAIAERYKSQGVSAEKSINSTFYLLLDLITFFDEYHAGHIDLSFDVIERLKLVPLSQDSVEERVAAFRNFSDEIRHNLSEILLATMNILFTQYKRLKGSGPTTLGRPQRVQEDKDSVLRSQARALITFAGMIPYRMSGDTNARLVQMEVLMN
# B2: Nup85 (protein, UniProt Q68FJ0 1-653)
# chain: T1 sequence
# Columns and labels:
# Assay in all cases: cryo-EM structure
# [1] = molecular target: T1, Nup85 (X. laevis (endogenous in oocytes))
# [2] = molecular target: Nup96 (X. laevis (endogenous in oocytes))
# [3] = molecular target: Nup107 (X. laevis (endogenous in oocytes))
Molecule,binding [1],binding [2],binding [3]
Nup107 (X. laevis (endogenous in oocytes)),binds,,
Nup205 (X. laevis (endogenous in oocytes)),binds,,
B1,,binds,binds
B2,,binds,
